Laboratory results reported in article PMC4851370, “The N-Terminus of the Floral Arabidopsis TGA Transcription Factor PERIANTHIA Mediates Redox-Sensitive DNA-Binding”.
Where a chain is given by its changes, count along the chain named. The exact form of at least one protein or probe is not confirmed. For some of these results: The comparison behind a weaker result is the experiment's own reference, which may not be listed here. Protein sequences can lack the tags named with them. For some of these results: At least one verdict rests on a figure or table, not on a statement of the authors.

Key:
Experiment in all cases: EMSA
[1] = biological target: T1, PANC154S (Arabidopsis thaliana) (UniProt Q9SX27); details: with or without 0.9 or 20 mM DTT or 2 mM diamide, 30 min in the dark before probe addition, protein translated in vitro, residues 1-452, label: 5' 32P
T1 sequence (looked up): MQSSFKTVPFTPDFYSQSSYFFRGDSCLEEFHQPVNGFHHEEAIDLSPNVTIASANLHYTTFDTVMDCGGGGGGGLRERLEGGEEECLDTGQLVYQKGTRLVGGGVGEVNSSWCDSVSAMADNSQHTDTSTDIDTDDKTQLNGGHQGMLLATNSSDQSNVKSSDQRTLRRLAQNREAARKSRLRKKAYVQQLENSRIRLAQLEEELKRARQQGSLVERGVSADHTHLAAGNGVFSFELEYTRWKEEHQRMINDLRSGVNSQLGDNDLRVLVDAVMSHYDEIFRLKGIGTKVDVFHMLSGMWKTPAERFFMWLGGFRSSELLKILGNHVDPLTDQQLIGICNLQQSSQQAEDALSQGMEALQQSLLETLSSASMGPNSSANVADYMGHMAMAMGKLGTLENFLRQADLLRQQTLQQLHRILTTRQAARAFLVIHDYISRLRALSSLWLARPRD

[2] = biological target: T2, PANΔN del1-166 (Arabidopsis thaliana) (UniProt Q9SX27); details: 0.9 mM DTT; with or without 0.9 or 20 mM DTT or 2 mM diamide, 30 min in the dark before probe addition; protein translated in vitro; residues 167-452; label: 5' 32P
T2 sequence (looked up): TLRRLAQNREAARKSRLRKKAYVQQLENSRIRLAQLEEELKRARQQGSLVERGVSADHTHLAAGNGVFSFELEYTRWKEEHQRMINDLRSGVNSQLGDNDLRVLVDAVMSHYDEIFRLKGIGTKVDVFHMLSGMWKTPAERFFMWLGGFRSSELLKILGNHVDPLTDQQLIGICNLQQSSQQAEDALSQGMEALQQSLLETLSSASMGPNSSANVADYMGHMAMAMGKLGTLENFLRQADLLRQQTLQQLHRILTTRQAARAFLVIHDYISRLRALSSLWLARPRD

[3] = biological target: T3, PERIANTHIA (PAN) (Arabidopsis thaliana) (UniProt Q9SX27); details: 2 mM diamide; with or without 0.9 or 20 mM DTT or 2 mM diamide, 30 min in the dark before probe addition; protein translated in vitro; residues 1-452; label: 5' 32P
T3 sequence (looked up): T1 sequence (looked up) with S154C

“AAGAATCTTTGATCACGTCATCACTCAGATATT (double strand)”: binds ([1]; 0.9 mM DTT); binds more weakly ([1]; 2 mM diamide); binds [2]. “AAGAATCTTTGATCACGTCATCACTCAGATATT (double strand)”: binds more weakly [3].
